# Test results published in PubChem BioAssay AID493014 (National Center for Advancing Translational Sciences (NCATS), 2011).
# Hit rate of the full screen: of about 340,000 compounds, about 170 (0.05%) were called active. Inconclusive results, whose numbers are uncertain, are shown with a selection of clear calls. Calls follow the shape of the dose curve; as a rule, active = well fitted inhibition curve with a large enough effect in the signal ratio, with a control signal flat (not every such curve was filed as active); inconclusive = small, poorly fitted or top-dose-only effect, or effect the other way, or a change in a side signal; inactive = flat fitted curve, though single readings scatter; the % refers to the signal ratio. Potencies of inconclusive entries are doubtful fits and often do not repeat.
# Assay: qHTS Assay to Find Inhibitors of Chronic Active B-Cell Receptor Signaling;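 as to activity change, negative = inhibition: plate controls were basal doxycycline-induced cells for no effect and cells given 10 µM MG132 for full effect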
# Details: ABC-DLBCL IkBa-CBG/CBR reporter, luminescence ratio (green luciferase fused to IkBa over red control in TMD8 lymphoma cells), 4 h; activity change, negative = inhibition: at 46.1 µM (top of the series)
# Outline: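 TMD8 human ABC-DLBCL cells with doxycycline-inducible IκBα–green luciferase fusion and unfused red luciferase, in 0.5% FBS medium; compounds up to 46 uM, 4 h at 37C. Green/red luminescence ratio, filter-overlap corrected, fitted to concentration-response curves.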
# Potency is read from the fitted curve at half-maximal effect.
SMILES,Potency,"activity change, negative = inhibition"
O=C(COc1ccccc1)c1cn(Cc2ccccc2)c2ccccc12,"inconclusive: 0.517 µM [falling, full curve]",
COc1cc2c(cc1O)C[C@H]1c3c(cc(O)c(OC)c3-2)CCN1C,,inactive
CC1(O)CCN2C(=O)CCc3cccc1c32 (centres undefined),,inconclusive: -5.82%
COC(=O)C1=C(c2ccc(OCc3ccccc3)cc2)C[C@@H]2CC[C@H]1N2C(=O)NCc1cccc(C(F)(F)F)c1,,inconclusive: -8.32%
COc1cc(C=C2C(=O)NC(=O)NC2=O)ccc1O,,inconclusive: 3.05%
NC(N)=N/N=C/c1cn(-c2ccccc2)nc1-c1cccs1,,inconclusive: 0.421%
O=C(C(=C1N(Cc2ccc(Cl)nc2)CCN1Cc1ccc(Cl)nc1)[N+](=O)[O-])C(Cl)Cl,,inactive
O=C(c1cccs1)c1cn(Cc2ccccc2Cl)c2ccccc12,,inactive
COc1cc(C(c2c(C)[nH]n(-c3ccccc3)c2=O)c2c(C)[nH]n(-c3ccccc3)c2=O)cc(OC)c1OC,"inconclusive: 1.78 µM [rising, partial curve, poor fit]",
CCOC(=O)c1c(C)n(Cc2ccccc2)c2ccc(O)cc12,"inconclusive: 10 µM [rising, partial curve, poor fit]",
Cc1c(C(=O)c2ccccc2)c2ccccc2n1C,,inconclusive: 0.0738%
COC(=NC1CCCCC1)C(O)c1c[nH]c2ccccc12 (centres undefined),"inconclusive: 29.1 µM [rising, single point]",
COc1ccc(-c2nn(CCC#N)cc2C(=O)Nc2ccc(C(C)=O)cc2)cc1[N+](=O)[O-],,inconclusive: -17.8%
CCCCn1c(O)c(C(C)=Nc2ccc(OCC)cc2)c(=O)[nH]c1=O,,inactive
CCCNC(=O)C(Cc1ccc(C(F)(F)P(=O)(OCC)OCC)cc1)NC(=O)c1ccc(C#N)cc1 (centres undefined),,inconclusive: 0.371%
N#CC(C#N)=NNc1ccc(-n2ccc(C(F)(F)F)n2)cc1,,inconclusive: 14.1%
O=C1NC(=O)N(c2cccc(Cl)c2)C(=O)/C1=C\c1ccc(Sc2nc3ccccc3[nH]2)o1,"inconclusive: 16.4 µM [rising, partial curve, poor fit]",
O=c1cc(CN2CC=C(c3ccccc3)CC2)c2c(ccc3ccccc32)o1,"inconclusive: 5.8 µM [falling, partial curve, poor fit]",
Cc1ccc(C(=O)c2cc(Br)ccc2N)cc1,,inconclusive: 14.3%
COCCOC(=O)c1c(N)n(Cc2ccco2)c2nc3ccccc3nc12,,inconclusive: 23.1%
Cc1cccc(NC(=O)c2cccc(N3C(=O)C4C5C=CC(C6CC56)C4C3=O)c2)c1 (centres undefined),,inconclusive: -2.56%
O=C(Oc1ccc(-c2nnco2)cc1)N1CCCCC1,,inconclusive: -1.39%
CCOc1cc(-c2nc3c(C)cccn3c2NCC2CCCO2)ccc1O (centres undefined),"inconclusive: 22.4 µM [falling, single point]",
CC(C)c1ccc(NC(=O)CSc2nnc(OC(=O)N(C)C)n2C2CC2)cc1,,inconclusive: -8.32%
COC(=O)C1=C(c2ccc(F)cc2OCc2ccccc2)C[C@@H]2CC[C@H]1N2C(=O)NCc1ccc([N+](=O)[O-])cc1,,inconclusive: 2.51%

SMILES,Potency,"activity change, negative = inhibition"
CC(=O)Nc1ccc2c(c1)CC1(C(=O)N(C)C(=O)N(C)C1=O)C1CCCN21 (centres undefined),,inconclusive: -7.9%
Cc1nc2sccc2c(=O)n1-c1ccccc1Cl,"inconclusive: 11.2 µM [falling, partial curve]",
Clc1ccc(COC(Cn2ccnc2)c2ccc(Cl)cc2Cl)c(Cl)c1 (centres undefined),"inconclusive: 29.1 µM [cytotoxic, single point]",
CCN(CC)c1ccc(CN2CC=C(c3ccc(F)cc3)CC2)cc1,,inactive
COC(=O)c1[nH]c2ccc(C)cc2c1NC(=O)Oc1ccccc1,"inconclusive: 18.4 µM [falling, partial curve]",
Cc1ccccc1OCc1n(CC(=O)OC2CC(C)CCC2C(C)C)c2ccccc2[n+]1C (centres undefined),"inconclusive: 35.5 µM [rising, partial curve, poor fit]",
C[C@]12CC[C@@H](O)CC1=CCC1C2CC[C@@]2(C)C1CC[C@@H]2N (some centres undefined),,inactive
COC(=O)C1=C(c2ccc3ccccc3c2)C[C@@H]2CC[C@H]1N2C(=O)NC1Cc2ccccc2C1,,inconclusive: 5.62%
CCc1ccccc1NC(=O)CNC1CCCCC1,,inconclusive: -10.2%
Cn1c(=O)cc(OCCCC(=O)N2CCC3(CC2)OCCO3)c2ccccc21,,inconclusive: 1.6%
CN(C)C(Cc1ccccc1)C(=O)c1ccccc1 (centres undefined),,inconclusive: 0.427%
CN1CCN(C2=Nc3cc(Cl)ccc3Nc3ccccc32)CC1,,inconclusive: -29.7%
Cn1cc(Br)c(C(=O)Nc2ccc3c(C(F)(F)F)cc(=O)oc3c2)n1,"inconclusive: 1.12 µM [falling, full curve, poor fit]",
O=c1[nH]c(=S)[nH]c(O)c1/C=C1/C=c2ccccc2=N1,,inconclusive: -10.3%
O=c1c2ccccc2nc(/C=C/c2ccccc2)n1-c1ccccc1O,"inconclusive: 12.6 µM [falling, partial curve, poor fit]",
CCC(=NCCc1ccccc1)c1c(O)n(C2CCCCC2)c(=O)[nH]c1=O,"inconclusive: 0.259 µM [rising, full curve, poor fit]",
O=C(O)c1[nH]c(=O)[nH]c(=O)c1F,,inactive
COc1ccccc1OCCCn1cc(C(=O)C2CC2)c2ccccc21,,inconclusive: 21.4%
COc1ccc(OC(=O)N(C)C)c(CN(C)C)c1,,inconclusive: 12.1%
c1ccc(CN2CCc3nc4ccccc4cc3C2)cc1,,inconclusive: 3.71%
CCCc1cc(=O)oc2cc(OCc3ccc(C(=O)O)o3)ccc12,,inconclusive: -16.9%
C(=N\Nc1nncc2ccccc12)/c1ccccn1,"inconclusive: 35.5 µM [rising, single point]",
CCN(CC)CCCOC(=O)C(OC(C)C)(c1ccccc1)c1ccccc1,"inconclusive: 5.8 µM [falling, full curve]",
Cc1ccc(O)c(-c2cc(-c3ccc(F)cc3)no2)c1,"inconclusive: 17.8 µM [falling, partial curve]",

# Two records picked at random from the list so far, as already listed:
SMILES,Potency,"activity change, negative = inhibition"
CCN(CC)CCCOC(=O)C(OC(C)C)(c1ccccc1)c1ccccc1,"inconclusive: 5.8 µM [falling, full curve]",
Cc1ccccc1OCc1n(CC(=O)OC2CC(C)CCC2C(C)C)c2ccccc2[n+]1C (centres undefined),"inconclusive: 35.5 µM [rising, partial curve, poor fit]",
